Laboratory results: PubChem BioAssay AID504804 (Drosophila RNAi Screening Center, 2011)

Assay: 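Fly genes whose loss lessens doxorubicin-driven cell death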 (primary screen)
System: Drosophila Kc cells
Knock-down reagent: long dsRNA against Drosophila genes, 0.5 µg dsRNA per well
Timing: 96 h (48 h knock-down, then 48 h drug)
Conditions: doxorubicin 5 µg/ml for 48 h, added 48 h after dsRNA
Detection: 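Viability measured as cellular ATP by luminescence after 48 h knock-down then 48 h doxorubicin at 5 µg/ml; unnormalised plate counts for each replicate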
Scale: raw ATP luminescence: higher = more viable cells, protection from doxorubicin
Rule for the call: 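z-score of 2 or more over plate mean in both duplicates, retained only when retests and separate dsRNAs confirm the protection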
The deposit covers about 19,000 reagents; below is a random part of those that have a named target and a result. Over the whole deposit, 47 (0.25%) are marked active. 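Signals are raw, not normalised; exact z-scores behind calls not deposited; actives needed confirmation, so some wells reaching 2 SD are inactive.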 A plus sign joins genes that one reagent is predicted to hit.

gene knocked down | amplicon | SD above plate mean | raw ATP luminescence, replicate 1 | raw ATP luminescence, replicate 2 | outcome
Cad96Ca | DRSC14220 | – | 94280 | 75010 | inactive
Cad96Ca | DRSC16693 | – | 90380 | 58660 | inactive
CG17440 | DRSC18126 | – | 3.54e5 | 1.29e5 | inactive
CG13409 | DRSC14585 | – | 1.01e5 | 95180 | inactive
RPA2 | DRSC03184 | – | 71503 | 67350 | inactive
CG11263 | DRSC09832 | – | 75790 | 73413 | inactive
CG7881 | DRSC04898 | – | 54543 | 52510 | inactive
asRNA:CR42743 + CG34162 | DRSC01190 | – | 3.16e5 | 3.33e5 | inactive
betaTub85D | DRSC16910 | – | 55270 | 45673 | inactive
Psf1 | DRSC08638 | – | 73840 | 38497 | inactive
RunxA | DRSC20400 | – | 1.94e5 | 1.91e5 | inactive
RunxA | DRSC20498 | – | 2.59e5 | 2.44e5 | inactive
RunxA | DRSC20524 | – | 3.10e5 | 3.01e5 | inactive
CG3598 | DRSC18471 | – | 48720 | 40850 | inactive
TwdlS | DRSC14737 | – | 58690 | 10510 | inactive
qua | DRSC03598 | – | 61753 | 74883 | inactive
LysD + LysB + LysC (retired record) | DRSC21249 | – | 2.64e5 | 2.98e5 | inactive
AdipoR | DRSC15767 | – | 40617 | 40287 | inactive
CG18599 | DRSC15357 | – | 66350 | 80310 | inactive
TMEM216 | DRSC16378 | – | 68680 | 59613 | inactive

An excerpt taken from the entries so far:
gene knocked down | amplicon | SD above plate mean | raw ATP luminescence, replicate 1 | raw ATP luminescence, replicate 2 | outcome
RunxA | DRSC20498 | – | 2.59e5 | 2.44e5 | inactive
RunxA | DRSC20524 | – | 3.10e5 | 3.01e5 | inactive
CG3598 | DRSC18471 | – | 48720 | 40850 | inactive
TwdlS | DRSC14737 | – | 58690 | 10510 | inactive
qua | DRSC03598 | – | 61753 | 74883 | inactive
LysD + LysB + LysC (retired record) | DRSC21249 | – | 2.64e5 | 2.98e5 | inactive
AdipoR | DRSC15767 | – | 40617 | 40287 | inactive

Additional reagents follow:
gene knocked down | amplicon | SD above plate mean | raw ATP luminescence, replicate 1 | raw ATP luminescence, replicate 2 | outcome
TotF | DRSC02305 | – | 34673 | 21760 | inactive
Mal-A8 | DRSC07234 | – | 36633 | 93157 | inactive
GramD1B | DRSC00426 | – | 23337 | 28450 | inactive
GramD1B | DRSC00591 | – | 92923 | 50343 | inactive
Obp19c | DRSC20528 | – | 2.65e5 | 2.67e5 | inactive
koi | DRSC04980 | – | 44860 | 77523 | inactive
CG32669 | DRSC18864 | – | 2.30e5 | 2.39e5 | inactive
CG7386 | DRSC10832 | – | 86203 | 77207 | inactive
CG8508 | DRSC16436 | – | 49523 | 22037 | inactive
mrn | DRSC10913 | – | 28247 | 28270 | inactive
fln | DRSC11346 | – | 28853 | 26150 | inactive
Pdh | DRSC11249 | – | 20987 | 26253 | inactive
CG14787 | DRSC18606 | – | 55800 | 66630 | inactive
elgi | DRSC10242 | – | 37417 | 35690 | inactive
EMC6 | DRSC14386 | – | 52360 | 56370 | inactive
ATP7 | DRSC19819 | – | 3.41e5 | 3.24e5 | inactive
epsilonCOP | DRSC02003 | – | 1.46e5 | 1.02e5 | inactive
CG1902 | DRSC06798 | – | 63310 | 47267 | inactive
Rpt4R | DRSC10791 | – | 95503 | 73050 | inactive
COX5A | DRSC16611 | – | 50773 | 41623 | inactive
Cenp-C | DRSC14371 | – | 53020 | 55083 | inactive
CG13032 | DRSC09912 | – | 88893 | 76743 | inactive
Mkk4 | DRSC16739 | – | 70447 | 59453 | inactive
CG31788 | DRSC01630 | – | 2.39e5 | 1.92e5 | inactive
CG12702 | DRSC19487 | – | 2.82e5 | 2.39e5 | inactive
cic | DRSC14276 | – | 21750 | 20150 | inactive
cic | DRSC15708 | – | 22890 | 25120 | inactive
cic | DRSC16918 | – | 43170 | 42670 | inactive
cic | DRSC21243 | – | 3.12e5 | 2.90e5 | inactive
rsh | DRSC18966 | – | 2.23e5 | 2.20e5 | inactive
rsh | DRSC19816 | – | 1.19e5 | 1.19e5 | inactive
Pvf3 | DRSC02284 | – | 22427 | 25487 | inactive
Pvf3 | DRSC02285 | at least 2 SD above plate mean | 22760 | 30590 | active
Pvf3 | DRSC02286 | – | 26670 | 28130 | inactive
Pvf3 | DRSC02751 | – | 20423 | 23583 | inactive
Lpt | DRSC04291 | at least 3 SD above plate mean | 66197 | 55600 | active
Lpt | DRSC04515 | – | 57070 | 50817 | inactive
